# From patent publication US6774127B2, “Pyrazole and pyrazoline substituted compounds” (SmithKline Beecham Corporation, priority 1997, dated 2004)
# The chains behind the UniProt entries cited, without tags or fusion partners.
# UniProt Q16539, whole entry: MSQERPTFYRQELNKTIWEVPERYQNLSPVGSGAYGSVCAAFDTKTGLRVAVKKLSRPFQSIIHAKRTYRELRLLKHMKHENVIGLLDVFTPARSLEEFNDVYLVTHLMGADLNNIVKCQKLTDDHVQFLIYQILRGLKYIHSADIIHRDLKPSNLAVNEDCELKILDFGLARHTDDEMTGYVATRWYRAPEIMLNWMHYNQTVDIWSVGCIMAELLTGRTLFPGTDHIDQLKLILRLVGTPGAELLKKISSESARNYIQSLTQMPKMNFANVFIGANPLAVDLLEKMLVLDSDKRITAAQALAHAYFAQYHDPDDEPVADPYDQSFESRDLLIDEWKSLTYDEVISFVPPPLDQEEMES
# Some results were stated once for a whole list of compounds, not compound by compound.
# Target: T1, CSBP2 (Homo sapiens, UniProt Q16539)
# T1 construct: made in house; host or cells: yeast
# Assay: CSBP Kinase Assay
# Type: biochemical
# Settings: yeast-expressed purified CSBP2; T669 peptide substrate; 170 uM ATP (Km); read-out: IC50, inhibitory activity in CSBP kinase assay
row,SMILES,IC50
1,"Fc1ccc(N2N=C(c3ccccc3)CC2c2ccncc2)cc1 (centres unmarked) [Example 2, 1-(4-Fluorophenyl)-3-phenyl-5-(4-pyridyl)-1,2-pyrazoline]",< 50 µM
2,"Fc1ccc(-n2nc(-c3ccccc3)cc2-c2ccncc2)cc1 [Example 3, 1-(4-Fluorophenyl)-3-phenyl-5-(4-pyridyl)pyrazole]",< 50 µM
3,"Fc1ccc(-n2nc(-c3ccccc3)c(Br)c2-c2ccncc2)cc1 [Example 4, 1-(4-Fluorophenyl)-3-phenyl-4-bromo-5-(4-pyridyl)pyrazole]",< 50 µM
4,CSc1ccc(-c2cc(-c3ccncc3)n(-c3ccc(F)cc3)n2)cc1 [Example 7],< 50 µM
5,"CS(=O)(=O)c1ccc(-c2cc(-c3ccncc3)n(-c3ccc(F)cc3)n2)cc1 [Example 8, 1-(4-Fluorophenyl)-3-(4-methylsulfonylphenyl)-5(4-pyridyl)pyrazole]",< 50 µM
